This note sets out measurements from PMC8201768.

The target of this assay is Sgo_R3-4 (tandem SHIRT repeats 3 and 4 of Sgo_0707, residues 621 through 789) (S. gordonii strain Challis (substrain DL1)) (UniProt A8AW49). The assay can be described thus: SEC; SEC inline with SAXS (Shodex KW-203.5 column), 20 mM Tris-HCl, 150 mM NaCl, 3 mM KNO3, 5 mM β-mercaptoethanol, pH 7.5; each protein injected at 7.5 mg/mL; both purified. For orientation: SEC sorts molecules by how far they enter the pores of the column.

Results are given in words; binding and its absence hold for the method and conditions named.

As for “Sgo_R3-4 (tandem SHIRT repeats 3 and 4 of Sgo_0707, residues 621 through 789) (from UniProt A8AW49 621-789) (domain or fragment)”, the binding result is “no binding (tested: 7.5 mg/mL)”.
